This experiment has as its target 5-HT2C receptor in rat brain tissue (rat) (UniProt P08909). Kind of experiment: co-immunoprecipitation from brain tissue.

Amino acid sequences for entries named in this document (tags omitted). Residues count along the entry.
UniProt P08909, residues 33-460: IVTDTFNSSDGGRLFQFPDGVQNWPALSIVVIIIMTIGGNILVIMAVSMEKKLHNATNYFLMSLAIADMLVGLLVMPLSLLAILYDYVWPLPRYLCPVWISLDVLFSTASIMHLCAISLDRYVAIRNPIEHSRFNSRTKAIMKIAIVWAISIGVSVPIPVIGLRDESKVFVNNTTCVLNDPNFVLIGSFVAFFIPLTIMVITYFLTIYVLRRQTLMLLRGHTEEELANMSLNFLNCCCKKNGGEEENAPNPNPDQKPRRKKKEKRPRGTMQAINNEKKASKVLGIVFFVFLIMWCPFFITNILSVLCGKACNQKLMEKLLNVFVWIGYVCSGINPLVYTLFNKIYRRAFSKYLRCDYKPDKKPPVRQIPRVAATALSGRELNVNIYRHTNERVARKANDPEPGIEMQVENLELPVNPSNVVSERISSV
UniProt O54857, residues 2-403: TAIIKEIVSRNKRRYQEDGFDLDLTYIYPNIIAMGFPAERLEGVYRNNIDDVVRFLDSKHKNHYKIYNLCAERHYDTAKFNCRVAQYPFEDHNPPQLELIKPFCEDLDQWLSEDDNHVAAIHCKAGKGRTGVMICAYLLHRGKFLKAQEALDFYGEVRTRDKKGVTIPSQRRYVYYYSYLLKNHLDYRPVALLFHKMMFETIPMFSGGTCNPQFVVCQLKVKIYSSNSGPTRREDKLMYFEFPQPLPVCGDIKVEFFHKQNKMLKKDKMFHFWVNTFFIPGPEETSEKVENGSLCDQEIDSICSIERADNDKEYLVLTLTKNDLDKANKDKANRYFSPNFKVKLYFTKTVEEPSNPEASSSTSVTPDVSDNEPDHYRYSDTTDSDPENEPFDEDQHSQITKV

This is an account of results in patent US20140235546A1.

No constants are given. Whether binding was seen depends on the method and setting. In cells and extracts the contact can be indirect. Some results given as binding are weak or reduced against the parent protein; the word gives no strength.

Consider “PTEN in rat brain tissue (from UniProt O54857 2-403) (enzyme)”, for which the binding result was “binds”.
